Measured data: PubChem BioAssay AID1259425 (University of Nebraska Medical Center, 2018)

Screen: 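Seek colon cancer weak points whose silencing resembles KSR1 loss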 (primary screen)
System: HCT116 human colon cancer cells
Reagents: siRNA pool against human genes, 50 nM siRNA
Detection: 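mRNA of six signature genes measured together by branched-DNA assay after 50 nM siRNA pool, blank removed, divided by geometric mean of two housekeeping genes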
Reading the numbers: BNIP3L mRNA: higher = more BNIP3L transcript after knockdown; NDRG1 mRNA: higher = more NDRG1 transcript after knockdown; BNIP3 mRNA: higher = more BNIP3 transcript after knockdown; ALDOC mRNA: higher = more ALDOC transcript after knockdown
The whole screen tested about 14,000 reagents; this is a part drawn at random. Not all columns of the deposit are shown. Not given: the time to read-out.

The first 5 records, ahead of the listing:
Target gene	PubChem SID	BNIP3L mRNA, set 1	NDRG1 mRNA, set 1	BNIP3 mRNA, set 1	ALDOC mRNA, set 1
ACKR3	SID364001600	0.112	0.24	0.39	0.0566
RNF26	SID364003736	0.0697	0.169	0.25	0.0574
LIFR	SID363993507	0.0891	0.117	0.337	0.00791
OR3A1	SID363993720	0.0965	0.0361	0.204	0.0126
GYPE	SID363993309	0.075	0.284	0.317	0.0163

Main list, repeating the preview:
Target gene	PubChem SID	BNIP3L mRNA, set 1	NDRG1 mRNA, set 1	BNIP3 mRNA, set 1	ALDOC mRNA, set 1
ACKR3	SID364001600	0.112	0.24	0.39	0.0566
RNF26	SID364003736	0.0697	0.169	0.25	0.0574
LIFR	SID363993507	0.0891	0.117	0.337	0.00791
OR3A1	SID363993720	0.0965	0.0361	0.204	0.0126
GYPE	SID363993309	0.075	0.284	0.317	0.0163
SH3GLB1	SID363999790	0.182	0.165	0.41	0.0285
LETMD1	SID363999478	0.0454	0.186	0.3	0.015
TMEM160	SID364000585	0.24	1.14	0.322	0.0274
CD1A	SID363992982	0.153	0.191	0.289	0.067
HIVEP2	SID363997506	0.223	0.19	0.392	0.0237
CIPC	SID364004378	0.0794	0.893	0.289	0.0762
TRIM13	SID363996676	0.0762	0.101	0.257	0.0229
CCDC74A	SID364004577	0.173	0.122	0.361	0.0596
CALML3	SID363996111	0.17	1.34	0.343	0.0286
PCDHB11	SID364001258	0.0376	0.277	0.538	0.00503
ATXN7	SID363991665	0.0681	0.0888	0.409	0.0202
FOXL2	SID364002628	0.0646	0.255	0.211	0.0151
IL18RAP	SID363994914	0.0597	0.195	0.248	0.0252
CELA3A	SID363996631	0.0944	0.234	0.399	0.0232
ICOSLG	SID363999385	0.128	0.636	0.558	0.00729
HBD	SID363991842	0.0948	0.135	0.241	0.0132
ATP5MK	SID364004150	0.156	0.394	0.329	0.0667
CDK20	SID363998067	0.0817	0.0956	0.349	0.00612
GAK	SID363996175	0.186	0.284	0.73	0.0164
DDX4	SID364001349	0.116	0.172	0.222	0.0296
BICRA	SID363999663	0.2	0.191	0.29	0.015
MEF2D	SID363996789	0.071	0.186	0.28	0.0301
KLHL41	SID363996909	0.11	0.168	0.158	0.0202
MMP17	SID363999916	0.0641	0.132	0.226	0.0149
RTL8A	SID363999585	0.27	0.546	0.622	0.0407
HES6	SID364001144	0.33	0.915	0.468	0.0189
HMOX1	SID363993338	0.0885	0.178	0.255	0.0279
POLR1H	SID363998968	0.0839	0.564	0.304	0.0291
MFGE8	SID363996796	0.101	0.155	0.362	0.0133
UBE2E3	SID363997173	0.0924	0.0809	0.159	0.0205
CHTF18	SID364002321	0.117	0.662	0.25	0.0528
FUT7	SID363995459	0.157	0.377	0.384	0.0398
RBM45	SID364004752	0.0717	0.331	0.352	0.0189
ACAN	SID363992428	0.129	0.196	0.323	0.00239
MRPS17	SID363999760	0.109	0.689	0.315	0.0671
TRIM33	SID363999708	0.0621	0.0548	0.27	0.0237
OIP5	SID363997969	0.127	0.394	0.296	0.0411
PRDM12	SID364002145	0.101	0.249	0.213	0.00532
FGG	SID363991832	0.129	0.2	0.184	0.0659
RECQL4	SID363995257	0.0688	0.144	0.303	0.0184
ATL2	SID364002428	0.165	0.268	0.446	0.0374
KANK1	SID363999335	0.1	0.298	0.308	0.0246
RTN1	SID364002033	0.126	0.296	0.47	0.063
ARPC4	SID363996604	0.16	0.223	0.396	0.0349
HTR2A	SID363991939	0.282	0.666	0.724	0.0982
CST4	SID363993112	0.171	0.268	0.305	0.0345
GSTA3	SID363992134	0.0748	0.0632	0.149	0.0142
SLC4A4	SID363994826	0.0805	0.173	0.28	0.00965
DIRAS3	SID363995639	0.122	0.0849	0.305	0.0272
VRTN	SID364000895	0.0774	0.0668	0.255	0.00996
CCDC15	SID364003205	0.0447	0.229	0.188	0.0364
MAP3K4	SID363996790	0.135	0.175	0.304	0.0226
PRKAA2	SID363997075	0.0721	0.104	0.499	0.00489
ZNF280C	SID364000432	0.156	0.337	0.369	0.0265
MAGEA12	SID363996277	0.156	0.195	0.426	0.02
FBXL15	SID364005403	0.0923	0.0864	0.301	0.0134
NUMB	SID363994811	0.122	0.145	0.218	0.0391
FCGR3A	SID363991889	0.171	0.337	0.354	0.0219
